For 42 sequences, binding signal results are on record in publication PMC7819943, “Rice protein-binding microarrays: a tool to detect cis-acting elements near promoter regions in rice”.

Some of the results follow.

This test addresses T1, OsSMF1 (Oryza sativa, UniProt Q6ZLB0 1-436).
T1 sequence: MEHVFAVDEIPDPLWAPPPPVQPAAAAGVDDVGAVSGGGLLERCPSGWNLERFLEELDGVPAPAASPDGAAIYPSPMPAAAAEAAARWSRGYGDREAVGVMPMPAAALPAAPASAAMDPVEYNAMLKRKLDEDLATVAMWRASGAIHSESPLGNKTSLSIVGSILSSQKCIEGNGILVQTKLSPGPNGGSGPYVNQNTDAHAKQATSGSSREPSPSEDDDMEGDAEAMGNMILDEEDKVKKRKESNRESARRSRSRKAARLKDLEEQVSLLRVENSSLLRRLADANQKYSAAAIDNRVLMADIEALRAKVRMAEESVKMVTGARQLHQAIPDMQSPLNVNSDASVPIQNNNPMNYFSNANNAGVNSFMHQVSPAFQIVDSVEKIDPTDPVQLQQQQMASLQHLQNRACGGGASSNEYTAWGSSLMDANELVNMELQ
Description: protein-binding microarray (RPBM); PBS, 2% BSA, 51.3 ng/ul salmon testes DNA, 50 uM zinc acetate, 200 nM TF, 25 C, 1 h; high values mean tight binding. The conditions noted are these: protein: recombinant; tags: N-terminal polyhistidine and DsRed monomer fusion (pET32a); chain copies: 2; label: CyDye5-dUTP incorporated in the synthesized complementary strand; 3' TTTTT single-stranded linker to array surface; dsDNA, one strand shown. In outline: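 The binding signal is fluorescence intensity per feature, in arbitrary units, read on an Axon 4000B scanner. Polyhistidine- and DsRed-tagged transcription factors (N-terminal fusions) from E. coli BL21-CodonPlus were purified on Ni–NTA and applied at 200 nM for 1 h at 25 °C to a double-stranded, BSA-blocked custom Agilent array in buffer with 50 µM zinc acetate.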
With “GGATGGATAGAACCAACGGCTGACGTGTACCCGAACGCGCCGGAGTCACCTAGTGCAG”, the binding signal is 14500 fluorescence intensity (a.u.).

In the case of “TCCCACCACCACCACCACCAGAGCTAGCGCAGCAACCGCGCGGAGTCACCTAGTGCAG”, the binding signal was 3420 fluorescence intensity (a.u.).

In the case of “TACTGCATGCGCAAAGAGTTAATCCGTGGGGCTCGTGGGACGGAGTCACCTAGTGCAG”, the binding signal is 45300 fluorescence intensity (a.u.).

Consider “GAACGTGACTTGTCATACTTGCCACATTACGCTGATCTTTCGGAGTCACCTAGTGCAG”, for which the binding signal is 5940 fluorescence intensity (a.u.).

Regarding “GGTTGCTCCTCGTGTTGGCGTGGTCGTCGTCGTCTTGGTCCGGAGTCACCTAGTGCAG”, the binding signal was 4000 fluorescence intensity (a.u.).

Consider “TCGGCCCTGGTCACGGACGGATGACGCGCGCCCAGTCCCCCGGAGTCACCTAGTGCAG”, for which the binding signal was 4460 fluorescence intensity (a.u.).

Regarding “TTCAACGAGGGGACCGTGGTGACTTCGACAATCTCAACTCCGGAGTCACCTAGTGCAG”, the binding signal was 3360 fluorescence intensity (a.u.).

For the sequence “GATCGACGGCGACGCCCCTGGAAGGAGCGGAATAGACCACCGGAGTCACCTAGTGCAG”, the binding signal is 46700 fluorescence intensity (a.u.).

Turning to “CCGTCCACCGCCGCTCCTCCTGCCTCCGGCCATGCGCTCGCGGAGTCACCTAGTGCAG”, the binding signal is 3420 fluorescence intensity (a.u.).

As for “TGAAAATTTCAATCCTTTCTTGTCAGCATAGTTCTTTCTGCGGAGTCACCTAGTGCAG”, the binding signal is 4880 fluorescence intensity (a.u.).

“CGCCGCTGCATAGTGCCGCCATCAATATGGGCTTGTTTGGCGGAGTCACCTAGTGCAG”: the binding signal was 3230 fluorescence intensity (a.u.).

As to “CTAATTAAACAAACACGCGAAATACACGTATATCAAGAAACGGAGTCACCTAGTGCAG”, the binding signal is 35200 fluorescence intensity (a.u.).

In the case of “TTTCGTAGCCTTAAAATTACCTCGTCACTGTCTTGTACTCCGGAGTCACCTAGTGCAG”, the binding signal is 4770 fluorescence intensity (a.u.).

Turning to “TTATGGGCTCTTGTAAGGAAGAACTGTTCTCTTATCCTAACGGAGTCACCTAGTGCAG”, the binding signal was 24800 fluorescence intensity (a.u.).

For “ACATCTCCATCGTTCTCCCCTGCGCCGGTGACGGCGCCGCCGGAGTCACCTAGTGCAG”, the binding signal is 3360 fluorescence intensity (a.u.).

“TCGTTGCCTCGTAACAACCGTCAAAATCAAATCGAGTCCACGGAGTCACCTAGTGCAG”: the binding signal is 24900 fluorescence intensity (a.u.).

With “TGCAAATAAATTCTCGTTTGGACCAAGTATCTGACGTATTCGGAGTCACCTAGTGCAG”, the binding signal was 4510 fluorescence intensity (a.u.).

Take “ATGGAGACCTCGCCACCTCACCGCAAACCACGCCTGCCGCCGGAGTCACCTAGTGCAG”: the binding signal is 7040 fluorescence intensity (a.u.).

For “TCCATGCTGGTTTTAGTCCTACGTGACAATACAGTCAGCACGGAGTCACCTAGTGCAG”, the binding signal is 5640 fluorescence intensity (a.u.).

Consider “GATGTGTGTTGTCATCAATATTTTGTACCGCACGTCGTATCGGAGTCACCTAGTGCAG”, for which the binding signal is 8360 fluorescence intensity (a.u.).

With “TTGTAGATTTGTAGATGTTACTCTTACATGACTCCTTCCTCGGAGTCACCTAGTGCAG”, the binding signal is 3480 fluorescence intensity (a.u.).

For the sequence “CAAATGCAGACCGGCCGTGGCGTGGCAGGCAGCCATCACACGGAGTCACCTAGTGCAG”, the binding signal was 4380 fluorescence intensity (a.u.).

Consider “TCTTCAATATCAGATTCCTCGTCCTCTGACTCATCATGTTCGGAGTCACCTAGTGCAG”, for which the binding signal was 17200 fluorescence intensity (a.u.).

Regarding “GGGGTGCACATGACACGACTGCTTCCGCGTTTCTTCTCGGCGGAGTCACCTAGTGCAG”, the binding signal was 6350 fluorescence intensity (a.u.).

Take “TGATCTCTCTCTGTGATTGCGTGGTTATTTCTGGTGCCTTCGGAGTCACCTAGTGCAG”: the binding signal was 3540 fluorescence intensity (a.u.).

Take “ATGCGAACTAAACACATCCTTGTTGCAATTAAGATGTCATCGGAGTCACCTAGTGCAG”: the binding signal was 19900 fluorescence intensity (a.u.).

Take “TCTTGCAATGCATAGCCTGCAACAGTCACCCCATCCCATGCGGAGTCACCTAGTGCAG”: the binding signal is 13300 fluorescence intensity (a.u.).

“CCAAACCGAAACCCACCTCCAGCGGGCCCCACCTGTCATCCGGAGTCACCTAGTGCAG”: the binding signal is 4180 fluorescence intensity (a.u.).

As for “GCTGTGTGATCGTCATCAATTGATCAGCAGAGTACCGTGGCGGAGTCACCTAGTGCAG”, the binding signal was 3380 fluorescence intensity (a.u.).

As to “CGAACGGCCGGCTGCCACGTCATTTTCGCCGCCCTCTGGGCGGAGTCACCTAGTGCAG”, the binding signal is 15600 fluorescence intensity (a.u.).

Regarding “TATTAATATTGTTTGAAAATGAGTCACCATACTCGTTCTACGGAGTCACCTAGTGCAG”, the binding signal was 7550 fluorescence intensity (a.u.).

In the case of “GGTGCTCTACCCTGGCCTCTCTGTCAGCCACTTCCTCCCGCGGAGTCACCTAGTGCAG”, the binding signal was 3750 fluorescence intensity (a.u.).

With “ACATCATTGCTACTAAGGATAATGGCCTCGGTTAATAAACCGGAGTCACCTAGTGCAG”, the binding signal was 6240 fluorescence intensity (a.u.).

On to “AATGATAAGCTCTACTACTTGATACACTCAAGACTCTGATCGGAGTCACCTAGTGCAG”, for which the binding signal was 3170 fluorescence intensity (a.u.).

In the case of “ATGGCTGAATCTGTACAAGTGTCGTGAGGTGGAAAATTTCCGGAGTCACCTAGTGCAG”, the binding signal was 4400 fluorescence intensity (a.u.).

Regarding “AATGATCAATGCATGATTAATAACTTCTATTGTGTAAACGCGGAGTCACCTAGTGCAG”, the binding signal is 3340 fluorescence intensity (a.u.).

For “TTGCCGATATTTTGGTACGTCATCCGTTTATGAGTCGGTGCGGAGTCACCTAGTGCAG”, the binding signal is 8380 fluorescence intensity (a.u.).

Consider “ACTAGATTTATCGTAGAACCATATGTTTAAGATAGACTATCGGAGTCACCTAGTGCAG”, for which the binding signal is 28500 fluorescence intensity (a.u.).

“AAATCGGCGCACCACCACCGCCCCGCCGTCCACGAATCGACGGAGTCACCTAGTGCAG”: the binding signal was 3170 fluorescence intensity (a.u.).

For the sequence “GTCAAATGTTGAACGTGAATAGTGCAAAACTACAGTTATTCGGAGTCACCTAGTGCAG”, the binding signal is 29200 fluorescence intensity (a.u.).

In the case of “GTCGGCAACGGCAAGGCGCTCTTCTACTGGTTCTTCGAGGCGGAGTCACCTAGTGCAG”, the binding signal was 3970 fluorescence intensity (a.u.).

For the sequence “GGCCTACTATACTTGCCAAGCGAGAGAGAGACCCCAGCACCGGAGTCACCTAGTGCAG”, the binding signal is 34400 fluorescence intensity (a.u.).
